2 substances from US20250025383A1, “EMOLLIENT COMPOSITION IN EMULSION FORM” (PIERRE FABRE MEDICAMENT, priority 2018, published 2025) can be followed below.

The nature of the series: Evaluation of the compatibility of the preservatives in view of other aspects (odour, aspect, potential irritant or allergenic).

Regarding Copper digluconate, under “preservative alone at 5% in emulsion”, the Comments/other aspects result was “Unstable cream”. As to Zinc undecylenate, the Comments/other aspects entry (preservative alone at 0.5% in emulsion) is “Thick cream,”.
